# Assay results published in the supplement of paper PMC12889115.
# Some of the results follow. Values are raw readings; no control value is given beside them.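 In the initial screen, polymyxin B was used at a concentration that permeabilizes Salmonella's outer membrane but not its inner membrane. Maximum growth was set by DMSO wells with or without polymyxin B. Since plates varied, data were ranked per plate, and compounds giving the lowest OD600 advanced as hits.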
# Test system: Salmonella enterica serovar Typhimurium SL1344
# Assay: bacterial growth OD600 after 18 h with compound and polymyxin B; higher = more bacterial growth (less inhibition)
# Details: 50 µM, Mueller-Hinton broth
Compound,bacterial growth OD600 (polymyxin B 1 µg/mL),bacterial growth OD600 (polymyxin B 0.75 µg/mL)
Cc1ccccc1N1CCN(c2ncccc2CNC(=O)c2ccoc2)CC1,0.543,–
CCN1CCN(C(=O)c2ccc(N3CCC(NCc4cc5ccccc5s4)CC3)cc2)CC1,–,0.737
COc1ccc(CN2CCOC(Cc3ccccc3)C2)cc1OC (stereo not given),–,0.798
Cc1c[nH]c(CN(C)C(=O)CC(c2ccccc2)c2ccc(Cl)cc2)n1 (stereo not given),0.012,–
COc1ccc(Cc2nc3ccc(C(=O)N4CCN(C5CCCC5)CC4)cc3o2)cc1,–,0.752
CCC(NC(=O)C1CCCN(c2nc(C)c3ccc(OC)cc3n2)C1)c1cccs1 (stereo not given),–,0.01
CC(C)(O)C#Cc1cccc(C(=O)NCCN2Cc3ccccc3OC(c3ccsc3)C2)c1 (stereo not given),–,0.08
CSc1ccccc1C(=O)NCc1c(C)ncc2c1CCN(C(=O)c1cc3ccccc3o1)C2,–,0.004
COc1ccc(-c2nn(-c3ccccc3)cc2CN2CCN3CCCC3C2)c(F)c1 (stereo not given),1.08,–
Cc1nc(N(C)C2CCCCC2)ncc1C(C)NC(=O)Cc1ccccn1 (stereo not given),–,0.896
C=CCS(=O)(=O)N1CCC2(CCCN(CCCc3ccccc3)C2=O)C1 (stereo not given),0.986,–
COc1ccc(CC2=NOC(C(=O)NCc3csc(-c4cccs4)n3)C2)cc1 (stereo not given),–,0.737
CN1C(=O)CC(CC(=O)N2CCC(N3CCSCC3)CC2)(c2ccc(-c3ccccc3)cc2)C1=O (stereo not given),–,0.672
COc1cc(-c2n[nH]cc2CN2CCCCC2c2nccs2)cc(OC)c1OC (stereo not given),0.903,–
CCc1ccc(CN(C)C(=O)CCc2nnc(COc3ccccc3)o2)cc1,0.825,–
CCc1cc(C(=O)N2CCCCC2C(=O)Nc2cccc(-c3nnc(C)s3)c2)on1 (stereo not given),0.836,–
COc1ccc(OC)c(-c2nc(CN(Cc3cnn(C)c3)C(C)C)c(C)o2)c1,1.15,–
CSc1ccccc1C(=O)NC1CCCN(CCCc2ccccc2)C1 (stereo not given),0.994,–
CCn1ccnc1CNC(=O)CC(c1ccccc1)c1ccc2c(c1)OCO2 (stereo not given),0.818,–
COc1ccc2c(c1)SC(c1ccc3c(c1)OCO3)CCN2Cc1ccsc1 (stereo not given),–,-0.002

# Part of the list above, as tab-separated lines:
Compound	bacterial growth OD600 (polymyxin B 1 µg/mL)	bacterial growth OD600 (polymyxin B 0.75 µg/mL)
CSc1ccccc1C(=O)NCc1c(C)ncc2c1CCN(C(=O)c1cc3ccccc3o1)C2	–	0.004
COc1ccc(-c2nn(-c3ccccc3)cc2CN2CCN3CCCC3C2)c(F)c1 (stereo not given)	1.08	–
